The supplement of paper PMC11348887
Counter-ions that a name gives are not always drawn. The list shows a part of the results. Small differences around the control level are noise. Where a SMILES comes first, the peptide text is derived from it. [ ]: non-standard residue; d: D form. d2Nal = N[C@H](Cc1ccc2ccccc2c1)C(=O)O

Tests used:
Details in all cases: 5 µM; treatment: days 7-14 after plating, readout day 21
[1] = test system: hPSC-derived cortical neurons (WA09); experiment: nucleus area z-score vs screen plate; higher = larger nuclei (more mature)
[2] = test system: hPSC-derived cortical neurons (WA09); experiment: total neurite length per nucleus (MAP2) z-score; higher = more neurite growth
[3] = test system: hPSC-derived cortical neurons (WA09); experiment: nucleus roundness z-score vs screen plate; higher = rounder nuclei (more mature)
[4] = test system: hPSC-derived cortical neurons (WA09); experiment: KCl-induced FOS+/EGR-1+ double-positive nuclei fraction z-score (KCl minus unstimulated); higher = stronger activity-induced IEG response

## Cn1cc(/C=C/C(=O)c2cccc(F)c2)cc1/C=C/C(=O)NO
[1]
  nucleus area z-score: 0.00135
[2]
  total neurite length per nucleus (z-score): 0.132
[3]
  nucleus roundness z-score: 0.228
[4]
  KCl-induced FOS+/EGR-1+ double-positive nuclei fraction z-score: 1.89

## C[C@H](NC(=O)[C@@H](Cc1ccc2ccccc2c1)NC(=O)[C@@H](C)N)C(=O)N[C@@H](Cc1c[nH]c2ccccc12)C(=O)N[C@H](Cc1ccccc1)C(=O)N[C@@H](CCCCN)C(N)=O (H-[dA][d2Nal]AW[dF]K-NH2)
[1]
  nucleus area z-score: -0.687
[2]
  total neurite length per nucleus (z-score): -0.233
[3]
  nucleus roundness z-score: 0.832
[4]
  KCl-induced FOS+/EGR-1+ double-positive nuclei fraction z-score: -0.839

## COCC[n+]1c2c(n(Cc3cnccn3)c1C)C(=O)c1ccccc1C2=O [YM155 (Sepantronium Bromide)]
[1]
  nucleus area z-score: -8.39
[2]
  total neurite length per nucleus (z-score): -1.53
[3]
  nucleus roundness z-score: 0.971
[4]
  KCl-induced FOS+/EGR-1+ double-positive nuclei fraction z-score: -1

## COc1ccc(C(=O)CC2(O)C(=O)Nc3c(Cl)ccc(Cl)c32)cc1 (stereo not given)
[1]
  nucleus area z-score: -0.893
[2]
  total neurite length per nucleus (z-score): -0.826
[3]
  nucleus roundness z-score: -1.41
[4]
  KCl-induced FOS+/EGR-1+ double-positive nuclei fraction z-score: -1.17

## O=c1sn(-c2cccc3ccccc23)c(=O)n1Cc1ccccc1 [Tideglusib]
[1]
  nucleus area z-score: -0.401
[2]
  total neurite length per nucleus (z-score): 0.64
[3]
  nucleus roundness z-score: 0.452
[4]
  KCl-induced FOS+/EGR-1+ double-positive nuclei fraction z-score: 0.568

## CCCCC(CC)COC(=O)CC(C(=O)OCC(CC)CCCC)S(=O)(=O)O (stereo not given) [Docusate Sodium]
[1]
  nucleus area z-score: 0.51
[2]
  total neurite length per nucleus (z-score): 0.479
[3]
  nucleus roundness z-score: -0.358
[4]
  KCl-induced FOS+/EGR-1+ double-positive nuclei fraction z-score: 1.1

## CC(C)(C)c1ccc(-c2nc3ccccc3[nH]2)cc1
[1]
  nucleus area z-score: 0.295
[2]
  total neurite length per nucleus (z-score): 1.09
[3]
  nucleus roundness z-score: 0.17
[4]
  KCl-induced FOS+/EGR-1+ double-positive nuclei fraction z-score: -0.497

## CC[C@]12C=CCN3CC[C@@]4(c5cc([C@@]6(C(=O)OC)C[C@@H]7C[C@@H](C(C)(F)F)CN(Cc8c6[nH]c6ccccc86)C7)c(OC)cc5N(C)[C@H]4[C@@](O)(C(=O)OC)[C@@H]1OC(C)=O)[C@@H]32 [Vinflunine Tartrate]
[1]
  nucleus area z-score: -14
[2]
  total neurite length per nucleus (z-score): -6.15
[3]
  nucleus roundness z-score: -8.96
[4]
  KCl-induced FOS+/EGR-1+ double-positive nuclei fraction z-score: -0.601

## CN1CCC(=C2c3ccccc3C=Cc3ccccc32)CC1 [Cyproheptadine hydrochloride]
[1]
  nucleus area z-score: -0.551
[2]
  total neurite length per nucleus (z-score): -1.47
[3]
  nucleus roundness z-score: -2.01
[4]
  KCl-induced FOS+/EGR-1+ double-positive nuclei fraction z-score: -0.418

## COC(=O)C1=C(C)NC(C)=C(C(=O)OC(C)C)C1c1cccc2nonc12 (stereo not given) [Isradipine]
[1]
  nucleus area z-score: -0.968
[2]
  total neurite length per nucleus (z-score): -1.55
[3]
  nucleus roundness z-score: -1.94
[4]
  KCl-induced FOS+/EGR-1+ double-positive nuclei fraction z-score: 0.0863

## COc1ccc2c(Oc3ccc(NC(=O)c4c(C)n(CC(C)(C)O)n(-c5ccccc5)c4=O)nc3)ccnc2c1
[1]
  nucleus area z-score: 2.19
[2]
  total neurite length per nucleus (z-score): 0.377
[3]
  nucleus roundness z-score: -0.841
[4]
  KCl-induced FOS+/EGR-1+ double-positive nuclei fraction z-score: 0.518

## CCC(C)SSc1ncc[nH]1 (stereo not given)
[1]
  nucleus area z-score: -0.375
[2]
  total neurite length per nucleus (z-score): 0.705
[3]
  nucleus roundness z-score: 0.74
[4]
  KCl-induced FOS+/EGR-1+ double-positive nuclei fraction z-score: 0.0994

## CC(=O)OCC(=O)[C@H]1CC[C@H]2[C@@H]3CCC4=CC(=O)CC[C@]4(C)[C@H]3CC[C@]12C [Deoxycorticosterone acetate]
[1]
  nucleus area z-score: 1.05
[2]
  total neurite length per nucleus (z-score): 0.474
[3]
  nucleus roundness z-score: 0.35
[4]
  KCl-induced FOS+/EGR-1+ double-positive nuclei fraction z-score: 0.0834

## CNC(=O)c1ccccc1Sc1ccc2c(/C=C/c3ccccn3)n[nH]c2c1 [Axitinib]
[1]
  nucleus area z-score: -1.22
[2]
  total neurite length per nucleus (z-score): 0.179
[3]
  nucleus roundness z-score: -4.19
[4]
  KCl-induced FOS+/EGR-1+ double-positive nuclei fraction z-score: -0.262

## CCCCCC(=O)O[C@]1(C(C)=O)CC[C@H]2[C@@H]3CCC4=CC(=O)CC[C@]4(C)[C@H]3CC[C@@]21C [Hydroxyprogesterone caproate]
[1]
  nucleus area z-score: -0.57
[2]
  total neurite length per nucleus (z-score): -0.227
[3]
  nucleus roundness z-score: -0.332
[4]
  KCl-induced FOS+/EGR-1+ double-positive nuclei fraction z-score: -0.11

## CC(C)(C)NC[C@H](O)COc1nsnc1N1CCOCC1 [Timolol Maleate]
[1]
  nucleus area z-score: 0.623
[2]
  total neurite length per nucleus (z-score): -0.117
[3]
  nucleus roundness z-score: 0.206
[4]
  KCl-induced FOS+/EGR-1+ double-positive nuclei fraction z-score: -0.726

## CCN(CC)C(=O)c1cccc(C)c1
[1]
  nucleus area z-score: -0.874
[2]
  total neurite length per nucleus (z-score): 0.817
[3]
  nucleus roundness z-score: 1.13
[4]
  KCl-induced FOS+/EGR-1+ double-positive nuclei fraction z-score: 1.18

## CC(C)(C#N)c1cc(Cn2cncn2)cc(C(C)(C)C#N)c1 [Anastrozole]
[1]
  nucleus area z-score: 2.36
[2]
  total neurite length per nucleus (z-score): 0.552
[3]
  nucleus roundness z-score: 0.297
[4]
  KCl-induced FOS+/EGR-1+ double-positive nuclei fraction z-score: 0.633

## NC(=O)N1c2ccccc2CC(=O)c2ccccc21 [Oxcarbazepine]
[1]
  nucleus area z-score: 1.32
[2]
  total neurite length per nucleus (z-score): -0.298
[3]
  nucleus roundness z-score: -1.57
[4]
  KCl-induced FOS+/EGR-1+ double-positive nuclei fraction z-score: -0.153

## CN(C)c1ccc2c(c1)Sc1cc(N(C)C)ccc1N2 [TRx0237 (LMTX) mesylate]
[1]
  nucleus area z-score: -5.1
[2]
  total neurite length per nucleus (z-score): 3.39
[3]
  nucleus roundness z-score: -0.202
[4]
  KCl-induced FOS+/EGR-1+ double-positive nuclei fraction z-score: 1.56

## Oc1ccc([C@H]2COc3cc(O)ccc3C2)cc1 [Equol]
[1]
  nucleus area z-score: 1.08
[2]
  total neurite length per nucleus (z-score): 0.31
[3]
  nucleus roundness z-score: 0.933
[4]
  KCl-induced FOS+/EGR-1+ double-positive nuclei fraction z-score: 0.488

## NC(=O)N/N=C/c1ccc([N+](=O)[O-])o1 [Nitrofural]
[1]
  nucleus area z-score: 0.126
[2]
  total neurite length per nucleus (z-score): 0.262
[3]
  nucleus roundness z-score: -0.133
[4]
  KCl-induced FOS+/EGR-1+ double-positive nuclei fraction z-score: -0.166

## COc1c(C)c2c(c(O)c1C/C=C(\C)CCC(=O)OCCN1CCOCC1)C(=O)OC2 [Mycophenolate Mofetil]
[1]
  nucleus area z-score: -0.21
[2]
  total neurite length per nucleus (z-score): 0.645
[3]
  nucleus roundness z-score: 0.573
[4]
  KCl-induced FOS+/EGR-1+ double-positive nuclei fraction z-score: -0.162

## O=C1c2cccc(O)c2C(=O)c2c(O)cc(CO)cc21 [Aloe-emodin]
[1]
  nucleus area z-score: 0.00514
[2]
  total neurite length per nucleus (z-score): 0.00733
[3]
  nucleus roundness z-score: 0.272
[4]
  KCl-induced FOS+/EGR-1+ double-positive nuclei fraction z-score: 1.51

## COc1ccc([C@@H]2CC(=O)c3c(O)cc(O[C@@H]4O[C@H](CO)[C@@H](O)[C@H](O)[C@H]4O[C@@H]4O[C@@H](C)[C@H](O)[C@@H](O)[C@H]4O)cc3O2)cc1O [Neohesperidin]
[1]
  nucleus area z-score: -3.01
[2]
  total neurite length per nucleus (z-score): -1.12
[3]
  nucleus roundness z-score: -0.41
[4]
  KCl-induced FOS+/EGR-1+ double-positive nuclei fraction z-score: 0.831
